Some of the results follow.
Key:
Assay in all cases: log2 fold change, soluble protein after heating vs DMSO (PISA); higher = thermal stabilisation; K562 lysate, 10 uM; active = over 0.2 and 3.5 SD of the protein, either way, in both replicates (recomputed)
lapatinib = compound: CS(=O)(=O)CCNCc1ccc(-c2ccc3ncnc(Nc4ccc(OCc5cccc(F)c5)c(Cl)c4)c3c2)o1 [lapatinib]
In short: (§1)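 Pellets of K562 cells were dounce-homogenised in PBS pH 7.4 with 1 mM MgCl2, and the crude extract was held at 1 mg/mL protein for a 30 min treatment with 10 μM compound. Aliquots were heated for 3 min over 48°C-58°C and pooled before NP-40 was added to 0.5% at 4°C. The supernatant from 21,000xg for 90 min was quantified by TMTpro 16plex LC-MS/MS with channel sums equalised. Values are reported from duplicates as log-two fold change in thermal stability relative to solvent controls.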

By UniProt entry, the sequences of proteins in these tests, tags left out. Where a name states a change or a piece, a line headed by the entry shows the natural chain unless it says otherwise.
UniProt P0DMU9: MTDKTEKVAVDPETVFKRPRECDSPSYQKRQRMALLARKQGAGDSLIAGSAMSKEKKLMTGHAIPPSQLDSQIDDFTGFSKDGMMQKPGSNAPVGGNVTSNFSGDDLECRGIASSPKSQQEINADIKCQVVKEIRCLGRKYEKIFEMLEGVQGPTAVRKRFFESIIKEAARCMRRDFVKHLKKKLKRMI
UniProt Q53ET0: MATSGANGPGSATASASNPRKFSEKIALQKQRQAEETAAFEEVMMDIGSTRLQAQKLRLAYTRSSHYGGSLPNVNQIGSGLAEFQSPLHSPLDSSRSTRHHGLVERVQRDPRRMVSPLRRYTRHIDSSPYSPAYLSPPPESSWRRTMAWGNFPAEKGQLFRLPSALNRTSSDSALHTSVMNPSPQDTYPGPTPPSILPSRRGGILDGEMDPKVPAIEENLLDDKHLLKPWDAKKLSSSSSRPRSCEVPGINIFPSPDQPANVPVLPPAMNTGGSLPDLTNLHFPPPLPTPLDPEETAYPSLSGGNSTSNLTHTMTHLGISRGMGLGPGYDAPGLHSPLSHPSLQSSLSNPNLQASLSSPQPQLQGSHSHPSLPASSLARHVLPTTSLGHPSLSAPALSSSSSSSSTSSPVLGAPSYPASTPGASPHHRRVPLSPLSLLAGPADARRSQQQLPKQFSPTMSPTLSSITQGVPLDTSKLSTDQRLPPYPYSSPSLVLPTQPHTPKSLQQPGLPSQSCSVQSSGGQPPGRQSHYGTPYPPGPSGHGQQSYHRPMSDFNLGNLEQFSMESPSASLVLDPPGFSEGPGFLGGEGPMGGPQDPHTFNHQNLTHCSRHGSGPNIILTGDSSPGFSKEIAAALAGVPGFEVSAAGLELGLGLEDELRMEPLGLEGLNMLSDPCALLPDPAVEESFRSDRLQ
UniProt P68400, whole entry, looked up: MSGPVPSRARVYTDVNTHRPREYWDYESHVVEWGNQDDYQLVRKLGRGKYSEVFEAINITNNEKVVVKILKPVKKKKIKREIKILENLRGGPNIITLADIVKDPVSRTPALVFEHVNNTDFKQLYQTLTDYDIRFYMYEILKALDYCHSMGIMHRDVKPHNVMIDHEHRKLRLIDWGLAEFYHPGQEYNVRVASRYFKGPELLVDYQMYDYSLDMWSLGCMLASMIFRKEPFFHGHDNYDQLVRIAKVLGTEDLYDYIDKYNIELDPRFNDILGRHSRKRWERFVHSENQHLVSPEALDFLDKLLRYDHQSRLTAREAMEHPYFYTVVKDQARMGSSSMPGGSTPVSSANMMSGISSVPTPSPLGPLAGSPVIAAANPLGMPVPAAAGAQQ
UniProt Q1MSJ5: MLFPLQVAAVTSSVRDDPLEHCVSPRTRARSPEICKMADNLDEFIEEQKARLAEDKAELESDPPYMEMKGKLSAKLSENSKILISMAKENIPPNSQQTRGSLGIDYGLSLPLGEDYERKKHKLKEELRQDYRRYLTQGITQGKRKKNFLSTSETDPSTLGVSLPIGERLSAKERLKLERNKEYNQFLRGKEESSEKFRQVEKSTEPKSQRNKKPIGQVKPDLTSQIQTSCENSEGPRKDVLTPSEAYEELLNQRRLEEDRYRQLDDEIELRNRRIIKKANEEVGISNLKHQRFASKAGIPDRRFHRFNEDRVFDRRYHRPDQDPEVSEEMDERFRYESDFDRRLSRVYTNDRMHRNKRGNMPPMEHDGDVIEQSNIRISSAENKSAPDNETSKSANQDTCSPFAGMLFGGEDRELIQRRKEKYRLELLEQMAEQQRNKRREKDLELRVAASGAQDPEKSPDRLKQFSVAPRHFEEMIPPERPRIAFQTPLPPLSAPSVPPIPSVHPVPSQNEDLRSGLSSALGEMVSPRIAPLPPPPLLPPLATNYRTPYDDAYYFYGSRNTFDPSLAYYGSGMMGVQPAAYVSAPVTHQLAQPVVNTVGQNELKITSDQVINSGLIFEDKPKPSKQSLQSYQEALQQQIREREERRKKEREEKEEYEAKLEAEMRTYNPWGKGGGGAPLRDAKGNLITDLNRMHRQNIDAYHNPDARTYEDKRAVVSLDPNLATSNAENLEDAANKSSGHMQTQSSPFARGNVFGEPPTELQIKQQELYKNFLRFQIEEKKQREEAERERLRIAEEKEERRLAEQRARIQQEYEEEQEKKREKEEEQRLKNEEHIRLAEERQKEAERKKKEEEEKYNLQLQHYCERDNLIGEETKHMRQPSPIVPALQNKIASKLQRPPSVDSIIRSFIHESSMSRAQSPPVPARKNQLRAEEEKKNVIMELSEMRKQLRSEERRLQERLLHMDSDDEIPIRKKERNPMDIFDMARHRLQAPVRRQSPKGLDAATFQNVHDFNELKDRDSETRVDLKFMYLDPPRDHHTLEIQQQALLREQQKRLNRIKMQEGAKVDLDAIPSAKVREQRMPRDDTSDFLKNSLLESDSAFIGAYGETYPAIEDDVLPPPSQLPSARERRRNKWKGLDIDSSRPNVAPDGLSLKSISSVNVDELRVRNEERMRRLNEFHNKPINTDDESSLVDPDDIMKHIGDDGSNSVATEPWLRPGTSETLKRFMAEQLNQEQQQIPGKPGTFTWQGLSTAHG
UniProt O60888: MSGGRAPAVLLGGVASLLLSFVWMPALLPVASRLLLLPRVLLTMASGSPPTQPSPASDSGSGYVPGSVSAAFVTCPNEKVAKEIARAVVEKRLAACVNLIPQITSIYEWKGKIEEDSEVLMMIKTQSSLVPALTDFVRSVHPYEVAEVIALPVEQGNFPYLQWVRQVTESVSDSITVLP
UniProt Q6UW02: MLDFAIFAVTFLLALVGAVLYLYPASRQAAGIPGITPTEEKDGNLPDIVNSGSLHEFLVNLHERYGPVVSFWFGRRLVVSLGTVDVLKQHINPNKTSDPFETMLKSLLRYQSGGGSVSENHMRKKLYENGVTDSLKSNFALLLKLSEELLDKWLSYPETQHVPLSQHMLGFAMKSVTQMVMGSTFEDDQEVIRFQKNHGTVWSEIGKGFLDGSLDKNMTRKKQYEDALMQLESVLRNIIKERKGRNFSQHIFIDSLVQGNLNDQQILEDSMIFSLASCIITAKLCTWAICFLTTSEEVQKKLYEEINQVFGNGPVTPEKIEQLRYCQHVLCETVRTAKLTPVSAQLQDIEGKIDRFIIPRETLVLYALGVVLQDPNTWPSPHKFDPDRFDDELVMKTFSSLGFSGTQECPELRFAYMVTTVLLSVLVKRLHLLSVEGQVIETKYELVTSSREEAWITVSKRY
UniProt Q13616, whole entry, looked up: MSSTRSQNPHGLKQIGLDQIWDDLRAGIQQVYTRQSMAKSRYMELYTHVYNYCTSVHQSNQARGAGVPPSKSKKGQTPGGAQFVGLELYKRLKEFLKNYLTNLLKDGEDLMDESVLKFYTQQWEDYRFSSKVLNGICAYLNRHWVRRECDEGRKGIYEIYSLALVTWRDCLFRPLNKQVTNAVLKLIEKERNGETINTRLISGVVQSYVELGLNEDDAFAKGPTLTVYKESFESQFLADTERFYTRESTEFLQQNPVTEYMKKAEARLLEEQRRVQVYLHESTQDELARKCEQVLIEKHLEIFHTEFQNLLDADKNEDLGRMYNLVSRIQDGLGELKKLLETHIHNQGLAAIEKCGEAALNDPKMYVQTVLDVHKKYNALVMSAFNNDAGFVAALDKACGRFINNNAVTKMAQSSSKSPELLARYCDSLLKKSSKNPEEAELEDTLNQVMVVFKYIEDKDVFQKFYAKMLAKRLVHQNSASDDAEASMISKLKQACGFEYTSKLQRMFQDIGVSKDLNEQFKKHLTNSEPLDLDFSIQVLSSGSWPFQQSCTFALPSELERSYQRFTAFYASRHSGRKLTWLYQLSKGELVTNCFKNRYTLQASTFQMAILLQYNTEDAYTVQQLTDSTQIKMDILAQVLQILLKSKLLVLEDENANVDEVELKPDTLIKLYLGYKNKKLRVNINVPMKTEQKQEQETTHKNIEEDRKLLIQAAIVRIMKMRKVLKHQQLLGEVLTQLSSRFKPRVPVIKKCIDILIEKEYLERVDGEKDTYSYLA
UniProt P39880: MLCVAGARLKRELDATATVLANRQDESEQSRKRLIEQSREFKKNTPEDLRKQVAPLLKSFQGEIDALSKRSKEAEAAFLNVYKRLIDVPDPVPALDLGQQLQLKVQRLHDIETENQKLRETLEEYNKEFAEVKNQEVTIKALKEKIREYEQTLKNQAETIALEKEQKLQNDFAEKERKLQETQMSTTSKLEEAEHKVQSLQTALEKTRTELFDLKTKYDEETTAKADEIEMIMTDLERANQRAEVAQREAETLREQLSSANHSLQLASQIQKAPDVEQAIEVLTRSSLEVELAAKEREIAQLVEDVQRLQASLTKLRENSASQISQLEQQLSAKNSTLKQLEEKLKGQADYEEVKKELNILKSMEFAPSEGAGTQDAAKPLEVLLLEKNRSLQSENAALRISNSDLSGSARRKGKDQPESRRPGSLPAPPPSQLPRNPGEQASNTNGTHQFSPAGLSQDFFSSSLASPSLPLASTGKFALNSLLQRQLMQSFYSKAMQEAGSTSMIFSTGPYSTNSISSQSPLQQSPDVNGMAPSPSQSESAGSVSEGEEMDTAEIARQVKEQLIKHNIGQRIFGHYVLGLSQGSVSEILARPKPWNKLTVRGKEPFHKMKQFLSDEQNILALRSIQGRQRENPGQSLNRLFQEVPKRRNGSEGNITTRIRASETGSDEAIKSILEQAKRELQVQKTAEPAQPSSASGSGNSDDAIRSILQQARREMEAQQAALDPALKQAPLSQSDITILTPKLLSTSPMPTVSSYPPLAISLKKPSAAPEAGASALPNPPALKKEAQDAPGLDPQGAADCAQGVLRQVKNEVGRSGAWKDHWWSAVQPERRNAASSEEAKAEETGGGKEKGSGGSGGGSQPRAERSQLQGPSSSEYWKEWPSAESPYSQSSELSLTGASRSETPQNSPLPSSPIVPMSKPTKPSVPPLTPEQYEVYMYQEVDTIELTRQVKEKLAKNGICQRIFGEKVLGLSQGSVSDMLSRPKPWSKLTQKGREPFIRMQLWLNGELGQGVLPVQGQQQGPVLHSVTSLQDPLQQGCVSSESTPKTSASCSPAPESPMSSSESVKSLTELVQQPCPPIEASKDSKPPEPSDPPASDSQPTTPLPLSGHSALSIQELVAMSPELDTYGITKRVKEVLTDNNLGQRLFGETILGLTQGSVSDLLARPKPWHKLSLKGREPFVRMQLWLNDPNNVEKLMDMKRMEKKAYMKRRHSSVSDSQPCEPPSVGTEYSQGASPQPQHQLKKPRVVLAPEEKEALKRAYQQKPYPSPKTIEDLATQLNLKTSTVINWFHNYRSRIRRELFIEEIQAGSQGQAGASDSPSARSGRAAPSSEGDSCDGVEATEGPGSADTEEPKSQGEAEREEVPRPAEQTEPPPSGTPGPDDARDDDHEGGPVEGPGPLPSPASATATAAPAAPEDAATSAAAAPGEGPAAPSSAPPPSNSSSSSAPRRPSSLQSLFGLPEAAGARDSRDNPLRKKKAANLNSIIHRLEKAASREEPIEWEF
UniProt Q93034, whole entry, looked up: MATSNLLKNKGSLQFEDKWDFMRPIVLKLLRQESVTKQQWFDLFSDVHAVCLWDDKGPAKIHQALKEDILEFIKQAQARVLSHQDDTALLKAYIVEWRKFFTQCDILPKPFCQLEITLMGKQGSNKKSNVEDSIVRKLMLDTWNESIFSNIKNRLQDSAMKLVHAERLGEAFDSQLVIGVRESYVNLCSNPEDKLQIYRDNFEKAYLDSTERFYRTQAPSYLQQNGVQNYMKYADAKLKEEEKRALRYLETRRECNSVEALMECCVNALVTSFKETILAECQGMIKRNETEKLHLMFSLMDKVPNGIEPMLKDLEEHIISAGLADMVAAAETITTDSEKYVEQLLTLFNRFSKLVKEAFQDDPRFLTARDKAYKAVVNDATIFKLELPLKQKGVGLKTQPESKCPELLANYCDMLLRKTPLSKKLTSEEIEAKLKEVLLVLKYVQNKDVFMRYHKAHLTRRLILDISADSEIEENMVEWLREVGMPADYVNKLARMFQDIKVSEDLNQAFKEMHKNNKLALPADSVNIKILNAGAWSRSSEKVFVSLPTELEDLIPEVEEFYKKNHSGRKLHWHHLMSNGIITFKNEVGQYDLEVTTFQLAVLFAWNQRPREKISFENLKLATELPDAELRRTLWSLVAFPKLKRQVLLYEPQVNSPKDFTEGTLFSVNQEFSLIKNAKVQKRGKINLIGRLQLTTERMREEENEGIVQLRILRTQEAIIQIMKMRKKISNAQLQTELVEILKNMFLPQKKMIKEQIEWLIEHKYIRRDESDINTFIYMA
UniProt P08574: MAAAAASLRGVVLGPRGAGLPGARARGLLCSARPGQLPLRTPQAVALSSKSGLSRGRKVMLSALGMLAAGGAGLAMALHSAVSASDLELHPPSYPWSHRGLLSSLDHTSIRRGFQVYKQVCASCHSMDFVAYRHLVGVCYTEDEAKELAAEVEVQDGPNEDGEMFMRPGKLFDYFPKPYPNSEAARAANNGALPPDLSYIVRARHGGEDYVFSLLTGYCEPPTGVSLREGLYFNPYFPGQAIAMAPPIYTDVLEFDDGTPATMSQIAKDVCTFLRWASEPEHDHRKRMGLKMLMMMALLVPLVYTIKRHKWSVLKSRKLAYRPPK

pictilisib = compound: CS(=O)(=O)N1CCN(Cc2cc3nc(-c4cccc5[nH]ncc45)nc(N4CCOCC4)c3s2)CC1 [pictilisib]
In short: as §1

crizotinib = compound: C[C@@H](Oc1cc(-c2cnn(C3CCNCC3)c2)cnc1N)c1c(Cl)ccc(F)c1Cl [crizotinib]
In short: as §1

[1] = compound: C[C@H](C1=CC=C(C=C1)C(=O)NC2=C3C=CNC3=NC=C2)N
In short: as §1

duvelisib = compound: C[C@H](Nc1ncnc2nc[nH]c12)c1cc2cccc(Cl)c2c(=O)n1-c1ccccc1 [duvelisib]
In short: as §1

gandotinib = compound: Cc1cc(Nc2cc(CN3CCOCC3)c3nc(C)c(Cc4ccc(Cl)cc4F)n3n2)n[nH]1 [gandotinib]
In short: as §1

tozasertib = compound: Cc1cc(Nc2cc(N3CCN(C)CC3)nc(Sc3ccc(NC(=O)C4CC4)cc3)n2)n[nH]1 [tozasertib]
In short: as §1

doramapimod = compound: Cc1ccc(-n2nc(C(C)(C)C)cc2NC(=O)Nc2ccc(OCCN3CCOCC3)c3ccccc23)cc1 [doramapimod]
In short: as §1

bafetinib = compound: Cc1ccc(NC(=O)c2ccc(CN3CC[C@H](N(C)C)C3)c(C(F)(F)F)c2)cc1Nc1nccc(-c2cncnc2)n1 [bafetinib]
In short: as §1

[2] = compound: Cc1cccc(CC(=O)N2CCc3c2ccc(-c2cn(C)c4ncnc(N)c24)c3F)n1
In short: as §1

nilotinib = compound: Cc1cn(-c2cc(NC(=O)c3ccc(C)c(Nc4nccc(-c5cccnc5)n4)c3)cc(C(F)(F)F)c2)cn1 [nilotinib]
In short: as §1

[3] = compound: Cc1nc(Nc2n[nH]c3c2CN(C(=O)N[C@H](CN(C)C)c2ccccc2)C3(C)C)c2sccc2n1
In short: as §1

dasatinib = compound: Cc1nc(Nc2ncc(C(=O)Nc3c(C)cccc3Cl)s2)cc(N2CCN(CCO)CC2)n1 [dasatinib]
In short: as §1

[4] = compound: Cc1ncc(-c2ccnc(Nc3ccc(S(C)(=O)=O)cc3)n2)n1C(C)C
In short: as §1

[5] = compound: Cn1cc(-c2ccc3c(c2)CCN3C(=O)Cc2cccc(C(F)(F)F)c2)c2c(N)ncnc21
In short: as §1

quisinostat = compound: Cn1cc(CNCC2CCN(c3ncc(C(=O)NO)cn3)CC2)c2ccccc21 [quisinostat]
In short: as §1

tipifarnib = compound: Cn1cncc1[C@@](N)(c1ccc(Cl)cc1)c1ccc2c(c1)c(-c1cccc(Cl)c1)cc(=O)n2C [tipifarnib]
In short: as §1

[6] = compound: NC(=O)Nc1cc(-c2cccc(F)c2)sc1C(=O)N[C@H]1CCCNC1
In short: as §1

[7] = compound: NC(=O)c1cnc(N[C@@H]2CCCC[C@@H]2N)nc1Nc1cccc(-n2nccn2)c1
In short: as §1

[8] = compound: NC1(c2ccc(-c3nc4ccn5c(=O)[nH]nc5c4cc3-c3ccccc3)cc2)CCC1
In short: as §1

Measured: log2 fold change

CT45A10 (UniProt P0DMU9)
inactive: lapatinib 0.006 | pictilisib 0.003 | crizotinib 0.098 | [1] 0.043 | duvelisib -0.007 | gandotinib -0.033 | tozasertib 0.011 | doramapimod -0.027 | bafetinib -0.011 | [2] -0.021 | nilotinib -0.004 | [3] 0.022 | dasatinib 0.014 | [4] -0.059 | [5] 0.024 | quisinostat 0.049 | tipifarnib -0.028 | [6] -0.02 | [7] -0.012 | [8] 0.014

CRLF3 (UniProt Q8IUI8)
inactive: lapatinib 0.007 | pictilisib -0.008 | crizotinib -0.028 | [1] -0.036 | duvelisib -0.017 | gandotinib 0.048 | tozasertib -0.021 | doramapimod 0.024 | bafetinib -0.015 | [2] 0.096 | nilotinib -0.006 | [3] -0.008 | dasatinib 0.005 | [4] 0.012 | [5] -0.018 | quisinostat -0.061 | tipifarnib 0.013 | [6] -0.002 | [7] 0.01 | [8] -0.055

CTBP2 isoform 2 (UniProt P56545)
inactive: lapatinib -0.031 | pictilisib -0.014 | crizotinib -0.029 | [1] -0.012 | duvelisib -0.09 | gandotinib -0.012 | tozasertib 0.016 | doramapimod 0.065 | bafetinib 0.014 | [2] 0.011 | nilotinib -0.022 | [3] 0.001 | dasatinib -0.025 | [4] -0.048 | [5] 0.019 | quisinostat -0.075 | tipifarnib -0.015 | [6] -0.037 | [7] 0.018 | [8] -0.079

CRTC2 (UniProt Q53ET0)
inactive: lapatinib 0.136 | pictilisib -0.015 | crizotinib -0.042 | [1] -0.062 | duvelisib -0.012 | gandotinib 0.029 | tozasertib -0.068 | doramapimod -0.029 | bafetinib 0.02 | [2] 0.102 | nilotinib -0.038 | [3] 0.04 | dasatinib 0.035 | [4] -0.061 | [5] -0.021 | quisinostat -0.059 | tipifarnib -0.103 | [6] 0.05 | [7] 0.002 | [8] 0.005

CSNK2A1 (UniProt P68400)
inactive: lapatinib -0.038 | pictilisib 0.016 | crizotinib 0.007 | [1] -0.021 | duvelisib -0.002 | gandotinib -0.007 | tozasertib -0.006 | doramapimod -0.003 | bafetinib 0.027 | [2] -0.018 | nilotinib -0.022 | [3] 0.061 | dasatinib 0 | [4] 0.058 | [5] -0.029 | quisinostat 0.049 | tipifarnib -0.013 | [6] 0.019 | [7] 0.003 | [8] -0.068

CTNNA2 (UniProt P26232)
inactive: lapatinib -0.023 | pictilisib -0.006 | crizotinib -0.024 | [1] -0.118 | duvelisib 0.035 | gandotinib 0.042 | tozasertib 0.007 | doramapimod 0.009 | bafetinib -0.062 | [2] 0.059 | nilotinib 0.05 | [3] 0.069 | dasatinib -0.035 | [4] 0.038 | [5] -0.019 | quisinostat 0.024 | tipifarnib 0 | [6] -0.05 | [7] 0.003 | [8] -0.008

CYB5R2 (UniProt Q6BCY4)
inactive: lapatinib -0.004 | pictilisib 0.006 | crizotinib -0.008 | [1] -0.07 | duvelisib 0.055 | gandotinib 0.072 | tozasertib 0 | doramapimod -0.012 | bafetinib -0.012 | [2] 0.052 | nilotinib 0.011 | [3] -0.011 | dasatinib 0.026 | [4] -0.027 | [5] -0.041 | quisinostat -0.054 | tipifarnib -0.007 | [6] 0.023 | [7] 0.022 | [8] -0.013

CSPP1 (UniProt Q1MSJ5)
inactive: lapatinib -0.103 | pictilisib -0.176 | crizotinib 0.013 | [1] 0.031 | duvelisib -0.089 | gandotinib 0.056 | tozasertib -0.04 | doramapimod 0.018 | bafetinib -0.013 | [2] -0.002 | nilotinib -0.105 | [3] -0.014 | dasatinib 0.046 | [4] 0.011 | [5] -0.062 | quisinostat 0.026 | tipifarnib 0.078 | [6] 0.015 | [7] -0.227 | [8] 0.011

CUTA isoform 2 (UniProt O60888)
inactive: lapatinib 0.022 | pictilisib -0.033 | crizotinib 0.027 | [1] -0.129 | duvelisib -0.012 | gandotinib 0.154 | tozasertib -0.018 | doramapimod -0.036 | bafetinib -0.041 | [2] 0.045 | nilotinib -0.023 | [3] 0.007 | dasatinib -0.014 | [4] 0.113 | [5] -0.092 | quisinostat -0.015 | tipifarnib -0.006 | [6] 0.069 | [7] -0.023 | [8] -0.009

CYP20A1 (UniProt Q6UW02)
inactive: lapatinib -0.04 | pictilisib -0.013 | crizotinib -0.011 | [1] -0.048 | duvelisib -0.043 | gandotinib -0.051 | tozasertib 0.023 | doramapimod 0.015 | bafetinib -0.018 | [2] 0.009 | nilotinib 0.035 | [3] -0.071 | dasatinib 0.007 | [4] -0.013 | [5] 0 | quisinostat 0.018 | tipifarnib 0.001 | [6] -0.039 | [7] 0.023 | [8] 0.015

CWC22 (UniProt Q9HCG8)
inactive: lapatinib 0.059 | pictilisib -0.027 | crizotinib -0.051 | duvelisib 0.011 | gandotinib -0.207 | tozasertib 0.072 | doramapimod -0.019 | bafetinib -0.088 | [2] -0.109 | nilotinib 0.043 | [3] 0.017 | dasatinib -0.015 | [4] 0.002 | [5] 0.02 | quisinostat 0.015 | tipifarnib 0 | [6] 0.011 | [7] 0.023 | [8] -0.011
active: [1] 0.46

CUL1 (UniProt Q13616)
inactive: lapatinib -0.007 | pictilisib 0.004 | crizotinib 0.014 | [1] -0.007 | duvelisib 0.015 | gandotinib 0.03 | tozasertib -0.001 | doramapimod 0.01 | bafetinib 0.03 | [2] -0.002 | nilotinib 0.025 | [3] 0.022 | dasatinib 0.034 | [4] 0.028 | [5] 0.027 | quisinostat 0.017 | tipifarnib 0.001 | [6] -0.021 | [7] -0.011 | [8] -0.004

CRBN (UniProt Q96SW2)
inactive: lapatinib 0.02 | pictilisib 0.014 | crizotinib -0.017 | [1] -0.098 | duvelisib 0.007 | gandotinib 0.046 | tozasertib 0.044 | doramapimod 0.032 | bafetinib -0.07 | [2] 0.095 | nilotinib 0.007 | [3] -0.012 | dasatinib 0.006 | [4] 0.016 | [5] 0.008 | quisinostat -0.015 | tipifarnib -0.017 | [6] 0 | [7] 0 | [8] 0.02

CUX1 isoform 3 (UniProt P39880)
inactive: lapatinib -0.01 | pictilisib -0.045 | crizotinib 0.004 | [1] 0.076 | duvelisib 0.007 | gandotinib -0.116 | tozasertib 0.032 | doramapimod -0.025 | bafetinib -0.012 | [2] 0.007 | nilotinib -0.029 | [3] 0.026 | dasatinib -0.04 | [4] 0.012 | [5] 0.006 | quisinostat -0.02 | tipifarnib -0.057 | [6] 0.006 | [7] 0.03 | [8] -0.015

CUL5 (UniProt Q93034)
inactive: lapatinib -0.017 | pictilisib 0.006 | crizotinib 0.005 | [1] -0.071 | duvelisib -0.012 | gandotinib 0.025 | tozasertib -0.001 | doramapimod 0.016 | bafetinib -0.019 | [2] 0.04 | nilotinib 0 | [3] -0.035 | dasatinib 0.007 | [4] -0.009 | [5] 0.026 | quisinostat -0.006 | tipifarnib 0.014 | [6] -0.007 | [7] 0.001 | [8] 0.001

CYC1 (UniProt P08574)
inactive: lapatinib 0.029 | pictilisib -0.044 | crizotinib 0.136 | [1] 0.068 | duvelisib -0.018 | gandotinib -0.029 | tozasertib 0.051 | doramapimod -0.024 | bafetinib 0.045 | [2] -0.067 | nilotinib 0.089 | [3] -0.007 | dasatinib 0.038 | [4] 0.053 | [5] 0.019 | quisinostat 0.196 | tipifarnib 0.001 | [6] 0.01 | [7] -0.062 | [8] 0.03
